The results in this text go back to PubChem BioAssay AID1487 (National Center for Advancing Translational Sciences (NCATS), 2009).

One may read the AC50 as the concentration giving half of the maximal activity seen.

The list shows a part of the results. These are further read-outs of the screen, such as a control signal, another cell line or another target. No call is given for them. Compounds called inactive in the main read-out are mostly missing here. Words in brackets tell the shape of the fitted curve; partial curves, single points and poor fits give uncertain potencies.

The experiment in a line: qHTS Assay for Modulators of Lamin A Splicing. As to conditions: HeLa LMNA splicing GFP/RFP minigene ratio, 48 h. A digest of the protocol: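 S3 HeLa stable clones carrying a lamin A-EGFP splicing minigene plus DsRed2 were seeded at 600 cells/well in Opti-MEM with 2% FBS, pin-dosed and incubated 48 h at 37°C. Acumen cytometry (488 nm) gave the GFP/RFP total-intensity ratio.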
For orientation: In qHTS, concentration-response curves come from the screen itself.

[1] abbreviates: measured here: GFP splicing reporter channel.
Where [2] appears, read: measured here: RFP viability control channel.

On to `C/C=C/c1ccc(OCCCCN2CC(C)CC(C)C2)c(OC)c1` (stereo not given), for which the half-maximal activity concentration (AC50) reads like this: under setting [1], 0.0224 µM [falling, full curve, poor fit]; under setting [2], 0.0282 µM [falling, full curve, poor fit].
For `OC(COc1ccc2c(c1)CCC2)Cn1cnc2ccccc21` (stereo not given), the AC50 runs as follows: under setting [1], 11.2 µM [rising, partial curve, poor fit]; under setting [2], 12.6 µM [rising, partial curve].
As for `O=C(Cc1ccc(Br)cc1)c1ccc(O)cc1O`, under setting [2], the concentration at half-maximal activity (AC50) was 20 µM [rising, single point].
Consider `O=C(CCCn1c(=S)[nH]c2cc3c(cc2c1=O)OCO3)N1CCN(c2ccc(F)cc2)CC1`, for which, under setting [1], the AC50 is 15.8 µM [rising, partial curve, poor fit].
As to `COc1ccc(OCCNC(=O)c2cccc(Oc3ccc(C(F)(F)F)cc3[N+](=O)[O-])c2)cc1`, the AC50 under setting [1] was 7.08 µM [rising, partial curve, poor fit] and the AC50 under setting [2] was 6.31 µM [rising, full curve].
As for `CC(Oc1ccc(Cl)cc1Cl)C(=O)Nc1ccncc1` (stereo not given), under setting [2], the concentration at half-maximal activity (AC50) was 5.01 µM [rising, partial curve].
As to `O=C(Nc1ccc(Cl)c(Cl)c1)OCc1cnc(Cl)s1`, the concentration at half-maximal activity (AC50) under setting [2] was 0.794 µM [rising, partial curve].
On to `CCOC1=NN(c2ccc(Cl)cc2)C(=O)/C1=C\N(C)C`, for which the concentration at half-maximal activity (AC50) under setting [1] was 28.2 µM [falling, single point].
In the case of `O=C1Nc2ccccc2C12Nc1ccccc1S2` (stereo not given), the AC50 under setting [1] was 35.5 µM [falling, single point] and the AC50 under setting [2] was 35.5 µM [falling, single point].
Take `CC(C(=O)Nc1sc2c(c1C(=O)NCC1CCCO1)CCC2)N1C(=O)c2ccccc2C1=O` (stereo not given): the AC50 under setting [1] was 0.1 µM [falling, full curve, poor fit].
Consider `CCOc1ccc(S(=O)(=O)Nc2cccc(C)c2)c2cccnc12`, for which the concentration at half-maximal activity (AC50) runs as follows: under setting [1], 5.01 µM [rising, partial curve]; under setting [2], 6.31 µM [rising, single point].
In the case of `COc1cc(NC(=O)NCCN2CCN(c3ccc(Cl)cc3)CC2)ccc1C`, the AC50 under setting [2] is 31.6 µM [rising, single point].
In the case of `COc1ccc(S(=O)(=O)NCCS(=O)(=O)N2CCN(c3ccccc3F)CC2)cc1`, the concentration at half-maximal activity (AC50) under setting [1] is 0.0112 µM [falling, full curve].
As to `CCN(CC)CCCNC(=S)N(Cc1cccs1)Cc1cc2cc3c(cc2[nH]c1=O)OCCO3`, the AC50 runs as follows: under setting [1], 35.5 µM [falling, single point]; under setting [2], 35.5 µM [falling, single point].
On to `C/C(=N\N1C(=O)c2ccccc2NC1c1ccco1)c1ccccc1O` (stereo not given), for which the AC50 under setting [2] was 11.2 µM [rising, partial curve].
Still for that read-out and setting: under `Cc1cc(C)cc(NC(=O)CN(C)S(=O)(=O)c2cccc3nsnc23)c1` stands 20 µM [rising, single point]; under `O=C(c1cccc(NS(=O)(=O)c2ccc(F)c(F)c2)c1)N1CCN(Cc2ccccc2)CC1`, 10 µM [rising, single point]; under `C=CCn1c(=O)c(C(=O)Nc2cccnc2)c(O)c2ccccc21`, 35.5 µM [rising, single point].
For `O=C(N/N=C/c1cc(Br)ccc1O)c1cccc(N2CCCC2=O)c1`, the AC50 was 11.2 µM [rising, partial curve] under setting [1] and 20 µM [rising, partial curve] under setting [2].
With `Cc1ccc(C)n1-c1ccc(C(=O)NCC2CCCO2)cc1` (stereo not given), the concentration at half-maximal activity (AC50) under setting [2] was 7.08 µM [falling, partial curve].
Regarding `CCOc1ccccc1C(=O)NCC(c1ccc(N(C)C)cc1)N1CCc2ccccc21` (stereo not given), under setting [1], the AC50 was 12.6 µM [falling, partial curve, poor fit].
For `COc1ccc(NC(=O)CSc2ccc3ccccc3c2)cc1S(=O)(=O)N1CCCCC1`, the AC50 is 12.6 µM [rising, single point] under setting [1] and 17.8 µM [rising, single point] under setting [2].
Take `Cc1c(C(=O)NCc2ccc(F)cc2)sc2nc(-c3ccccc3)cn12`: the AC50 reads like this: under setting [1], 3.98 µM [rising, partial curve]; under setting [2], 5.01 µM [rising, partial curve].
With `COC(=O)c1c(-c2ccc(Cl)cc2)noc1N1CCN(c2cccc(OC)c2)CC1`, the AC50 was 3.55 µM [falling, full curve] under setting [1] and 5.01 µM [falling, full curve] under setting [2].
Consider `CCOc1ccc(CN(C)C(C)C(=O)Nc2ccc([N+](=O)[O-])cc2Cl)cc1OC` (stereo not given), for which the AC50 is 12.6 µM [rising, single point] under setting [1] and 15.8 µM [rising, partial curve] under setting [2].
For `CCc1ccc(CN(C)C(=O)c2cc(COc3c(F)cccc3F)on2)cc1`, the AC50 under setting [1] was 7.94 µM [falling, partial curve, poor fit] and the half-maximal activity concentration (AC50) under setting [2] was 7.08 µM [falling, partial curve, poor fit].
`COc1cc2c(cc1NC(=O)CSc1ccccc1)oc1ccccc12`: under setting [2], the half-maximal activity concentration (AC50) was 22.4 µM [rising, partial curve].
Same read-out and setting: under `Cc1ccc(CSc2nnc(-c3cccc(S(=O)(=O)N4CCOCC4)c3)n2C2CCCC2)cc1` stands 28.2 µM [rising, single point].
As for `COCCCCC(=NOCCN)c1ccc(C(F)(F)F)cc1`, the AC50 reads like this: under setting [1], 0.0708 µM [falling, full curve]; under setting [2], 0.0447 µM [falling, full curve].
On to `Cc1ccc(Cl)cc1N1CCN(C(=O)COc2ccc3c(c2)CCC3)CC1`, for which the AC50 under setting [2] was 35.5 µM [rising, single point].
Consider `CCNc1ncc2nc(-c3ccc(Cl)cc3)c(=O)n(Cc3cccc(OC)c3)c2n1`, for which the AC50 reads like this: under setting [1], 20 µM [falling, single point]; under setting [2], 22.4 µM [falling, single point].
Consider `Cc1ccc(NC(=O)c2cc(-c3cccs3)on2)cc1C`, for which the AC50 was 3.16 µM [falling, full curve] under setting [1] and 8.91 µM [falling, full curve] under setting [2].
Take `CC(C)(C)c1nnc2sc(SCC(=O)c3ccc4c(c3)OCCO4)nn2c1=O`: the AC50 under setting [1] is 22.4 µM [falling, single point].
As to `Nc1nc(CSc2nnnn2-c2ccccc2)nc(N2CCCc3ccccc32)n1`, the AC50 is, setting by setting: under setting [1], 15.8 µM [rising, single point]; under setting [2], 20 µM [rising, single point].
